Laboratory results published in patent publication US20240158386A1, “BENZOXAZOLONE INHIBITORS OF INFLAMMASOMES” (ICAHN SCHOOL OF MEDICINE AT MOUNT SINAI, priority 2021, published 2024).
A number of entries come with more than one value. The list is limited to them. There may be further records. Results that share an entry differ, and nothing given here explains why; they may come from other doses, times, organisms or constructs than stated.

Protein sequences, listed by entry. Tags and fused reporters are not part of them.
UniProt Q8R4B8, whole entry: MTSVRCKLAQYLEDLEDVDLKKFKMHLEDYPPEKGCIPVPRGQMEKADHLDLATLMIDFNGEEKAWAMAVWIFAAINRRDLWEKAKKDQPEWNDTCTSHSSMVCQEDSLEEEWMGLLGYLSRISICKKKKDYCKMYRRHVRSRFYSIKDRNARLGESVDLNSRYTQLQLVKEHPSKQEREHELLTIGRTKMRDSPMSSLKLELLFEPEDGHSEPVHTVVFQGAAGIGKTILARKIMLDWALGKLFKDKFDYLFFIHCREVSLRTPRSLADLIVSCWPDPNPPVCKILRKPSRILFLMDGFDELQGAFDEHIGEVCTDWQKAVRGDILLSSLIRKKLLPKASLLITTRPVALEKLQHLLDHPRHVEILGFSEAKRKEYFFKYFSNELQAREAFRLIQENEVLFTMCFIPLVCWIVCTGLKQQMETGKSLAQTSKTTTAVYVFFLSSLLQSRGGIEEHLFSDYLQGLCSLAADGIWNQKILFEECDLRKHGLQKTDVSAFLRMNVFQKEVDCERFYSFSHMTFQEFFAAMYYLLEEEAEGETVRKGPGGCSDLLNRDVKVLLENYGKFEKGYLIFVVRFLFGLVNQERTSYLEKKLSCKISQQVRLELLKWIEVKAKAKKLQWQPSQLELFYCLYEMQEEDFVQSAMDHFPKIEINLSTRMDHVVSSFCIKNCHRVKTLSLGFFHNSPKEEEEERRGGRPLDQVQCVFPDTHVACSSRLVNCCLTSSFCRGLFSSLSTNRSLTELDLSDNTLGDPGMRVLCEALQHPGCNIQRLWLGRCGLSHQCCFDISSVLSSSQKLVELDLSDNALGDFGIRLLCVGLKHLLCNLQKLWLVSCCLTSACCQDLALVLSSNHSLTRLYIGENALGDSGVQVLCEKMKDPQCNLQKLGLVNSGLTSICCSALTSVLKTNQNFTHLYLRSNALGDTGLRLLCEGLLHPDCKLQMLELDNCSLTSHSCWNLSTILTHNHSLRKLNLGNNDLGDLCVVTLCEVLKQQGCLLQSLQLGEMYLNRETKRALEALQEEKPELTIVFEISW

Biological target: NLRP3 inflammasome (Mus musculus, UniProt Q8R4B8)
Assay: NLRP3 inflammasome activation assay: IL-1β release by primary microglia after LPS and ATP
Details: 100 μM compound
Experimental: Murine primary microglia. Mixed cortical cultures were prepared as previously described (Bronstein, R. et al. J. Vis. Exp. JoVE 50647 (2013) doi:10.3791/50647). Briefly, cortices from 2-3 days old, WT, or NLRP3 KO pups were isolated, digested, and seeded at a density of 8 cortices per 10 ml petri dish. Every three days, the medium was replaced by fresh culture medium (DMEM, 10% FBS, 1% penicillin-streptomycin). After three weeks, mixed glial cultures had reached confluence, and microglia cells were isolated by mild trypsinization as previously described (Saura, J. et al. Glia 44, 183-189 (2003)). […] Cells were counted and seeded at the desired density, typically 7.5·10^4 cells/well in 24 well-plates. […]
Cytokine quantification. IL-1β in cell supernatants and brain tissue samples—after the different treatment groups—was quantified using the Mouse IL-1 beta/IL-1F2 DuoSet ELISA kit (R&D systems), IL-6 in cell culture supernatant was measured through the Mouse IL-6 ELISA kit (ThermoFisher), TNF-α in cell culture supernatants was determined using the Mouse TNF-alpha DuoSet ELISA (R*D systems), and IL-18 in brain tissue was measured through the IL-18 Mouse ELISA Kit (Invitrogen) following the manufacturers' recommended protocol. IL-1β precursor and cleaved IL-1β in the FC of mice treated with vehicles, LPS, or C77-LPS was assessed by western blot. […]

O=c1[nH]nc(-c2ccc(OCc3ccc(F)cc3)cc2)o1
inhibition of IL-1β release upon NLRP3 activation: completely inhibited IL-1β and completely prevented IL-1β secretion
